Data as given in PubChem BioAssay AID1224830 (NIAID, 2016)

- Assay: 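Regulators of TLR4 signalling towards TNF-alpha in macrophage-like cells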 (primary screen)
- Cells: human THP-1 monocytic leukaemia cells, TNF dual-luciferase reporter clone, PMA-differentiated to macrophage-like cells
- Knock-down reagent: siRNA pool against human genes, 50 nM
- Duration: LPS for 4 h, given about 3 days after siRNA transfection
- Challenge: bacterial LPS (TLR4 ligand), 10 ng/ml
- Read-out: 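TNF firefly reporter luminescence divided by renilla, normalised to the plate median, then turned into a robust z-score for each replicate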
- Reading the numbers: TNF reporter robust z-score: higher = stronger TNF reporter response to LPS
- Rule for the call: 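Each well counts as active if its z-score is over 2.8 or under -1.5; controls are left without a call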
Here is an unselected part of about 18,000 reagents tested. About 2,900 of all reagents (16%) count as active. 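Calls are made per well; low scores hint the gene aids the LPS response, high scores that it dampens it.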 Entries without a mark were called inactive. Repeated entries: four replicate wells of each siRNA pool.

no.	Target gene	TNF reporter robust z-score
1	KRR1 (GeneID 11103)	-0.39
2	KRR1 (GeneID 11103)	0.09
3	KRR1 (GeneID 11103)	-0.69
4	KRR1 (GeneID 11103)	-0.01
5	CT47A6 (GeneID 728062)	1.09
6	CT47A6 (GeneID 728062)	0.42
7	CT47A6 (GeneID 728062)	-0.39
8	CT47A6 (GeneID 728062)	1.61
9	PRICKLE4 (GeneID 29964)	0.89
10	PRICKLE4 (GeneID 29964)	1.13
11	PRICKLE4 (GeneID 29964)	-0.25
12	PRICKLE4 (GeneID 29964)	-0.07
13	C19orf12 (GeneID 83636)	-0.4
14	C19orf12 (GeneID 83636)	0.19
15	C19orf12 (GeneID 83636)	0.61
16	C19orf12 (GeneID 83636)	0.8
17	TGDS (GeneID 23483)	-0.59
18	TGDS (GeneID 23483)	-0.74
19	TGDS (GeneID 23483)	-0.7
20	TGDS (GeneID 23483)	-0.61
21	RAB42 (GeneID 115273)	-1.08
22	RAB42 (GeneID 115273)	1.69
23	RAB42 (GeneID 115273)	1.3
24	RAB42 (GeneID 115273)	0.89
25	TACO1 (GeneID 51204)	0.17
26	TACO1 (GeneID 51204)	0.46
27	TACO1 (GeneID 51204)	-0.41
28	TACO1 (GeneID 51204)	-1.03
29	MRGPRX3 (GeneID 117195)	0.67
30	MRGPRX3 (GeneID 117195)	0.5
31	MRGPRX3 (GeneID 117195)	0.69
32	MRGPRX3 (GeneID 117195)	0.7
33	TMA16 (GeneID 55319)	0.24
34	TMA16 (GeneID 55319)	0.66
35	TMA16 (GeneID 55319)	0.61
36	TMA16 (GeneID 55319)	0.95
37	OGG1 (GeneID 4968)	0.92
38	OGG1 (GeneID 4968)	1.18
39	OGG1 (GeneID 4968)	0.85
40	OGG1 (GeneID 4968)	1.32
41	METTL14 (GeneID 57721)	-0.22
42	METTL14 (GeneID 57721)	2.24
43	METTL14 (GeneID 57721)	1.07
44	METTL14 (GeneID 57721)	1.96
45	EFNB2 (GeneID 1948)	0.11
46	EFNB2 (GeneID 1948)	-0.01
47	EFNB2 (GeneID 1948)	-0.31
48	EFNB2 (GeneID 1948)	0.88
49	SRP19 (GeneID 6728)	2.35
50	SRP19 (GeneID 6728)	1.75
51	SRP19 (GeneID 6728)	1.98
52	SRP19 (GeneID 6728)	-0.07
53	LRPPRC (GeneID 10128)	0.22
54	LRPPRC (GeneID 10128)	0.01
55	LRPPRC (GeneID 10128)	1.17
56	LRPPRC (GeneID 10128)	0.28
57	DDIT4L (GeneID 115265)	-0.38
58	DDIT4L (GeneID 115265)	0.01
59	DDIT4L (GeneID 115265)	-0.81
60	DDIT4L (GeneID 115265)	-0.64
61	CGB1 (GeneID 114335)	0.54
62	CGB1 (GeneID 114335)	0.17
63	CGB1 (GeneID 114335)	0
64	CGB1 (GeneID 114335)	0.12
65	SYT5 (GeneID 6861)	-0.94
66	SYT5 (GeneID 6861)	-1.13
67	SYT5 (GeneID 6861)	-1.18
68	SYT5 (GeneID 6861)	-0.77
69	DIPK1A (GeneID 388650)	-0.12
70	DIPK1A (GeneID 388650)	0.19
71	DIPK1A (GeneID 388650)	-1.01
72	DIPK1A (GeneID 388650)	0
73	RBCK1 (GeneID 10616)	0.16
74	RBCK1 (GeneID 10616)	-0.4
75	RBCK1 (GeneID 10616)	0.94
76	RBCK1 (GeneID 10616)	1.97

Targets listed so far whose target name begins with K or k:
Target gene	TNF reporter robust z-score
KRR1 (GeneID 11103)	-0.39
KRR1 (GeneID 11103)	0.09
KRR1 (GeneID 11103)	-0.69
KRR1 (GeneID 11103)	-0.01
